According to article doi:10.1101/2022.10.22.513345 (bioRxiv, 2022):
These are yes or no findings as the source states them, for the method shown. Some results given as binding are weak or reduced against the parent protein; the word gives no strength.

Chains of the proteins cited; added tags and fusions are not shown. Residues count along the entry.
UniProt O95858, whole entry: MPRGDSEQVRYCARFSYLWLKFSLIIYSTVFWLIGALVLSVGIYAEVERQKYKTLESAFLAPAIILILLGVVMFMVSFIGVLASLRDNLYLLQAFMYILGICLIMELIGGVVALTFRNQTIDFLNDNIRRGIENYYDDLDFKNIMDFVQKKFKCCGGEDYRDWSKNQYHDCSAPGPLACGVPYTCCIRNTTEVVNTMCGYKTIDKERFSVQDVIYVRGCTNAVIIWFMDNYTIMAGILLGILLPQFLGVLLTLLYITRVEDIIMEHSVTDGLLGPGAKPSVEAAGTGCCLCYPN
UniProt O14672, 214-748: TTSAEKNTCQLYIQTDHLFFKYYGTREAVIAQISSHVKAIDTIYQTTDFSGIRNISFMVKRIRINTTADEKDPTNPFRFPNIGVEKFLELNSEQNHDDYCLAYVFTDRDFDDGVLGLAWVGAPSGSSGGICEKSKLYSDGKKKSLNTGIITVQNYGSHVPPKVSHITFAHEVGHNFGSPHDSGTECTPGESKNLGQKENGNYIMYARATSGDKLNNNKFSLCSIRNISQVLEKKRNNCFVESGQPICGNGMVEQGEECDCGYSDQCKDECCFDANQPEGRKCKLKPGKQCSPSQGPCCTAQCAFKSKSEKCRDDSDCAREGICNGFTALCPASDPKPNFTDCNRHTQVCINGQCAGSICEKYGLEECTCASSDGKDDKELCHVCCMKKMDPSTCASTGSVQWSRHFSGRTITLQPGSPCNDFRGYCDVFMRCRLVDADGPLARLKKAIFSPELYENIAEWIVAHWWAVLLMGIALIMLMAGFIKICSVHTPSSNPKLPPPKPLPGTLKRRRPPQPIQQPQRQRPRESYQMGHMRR

Target: His-EK-Tspan15 (UniProt O95858)
Test: cryo-EM structure

FLAG-ADAM10 (A Disintegrin and Metalloproteinase 10), mature species used for structure determination (from UniProt O14672 214-748) (enzyme)
binding: binds
